# In patent publication US10407503B2, “Fully human antibodies and fragments recognizing human c-Met” (THE REGENTS OF THE UNIVERSITY OF CALIFORNIA, priority 2012, dated 2019):
# Protein sequences, listed by entry. Tags and fused reporters are not part of them. Residues count along the entry.
# UniProt P08581, residues 25-932: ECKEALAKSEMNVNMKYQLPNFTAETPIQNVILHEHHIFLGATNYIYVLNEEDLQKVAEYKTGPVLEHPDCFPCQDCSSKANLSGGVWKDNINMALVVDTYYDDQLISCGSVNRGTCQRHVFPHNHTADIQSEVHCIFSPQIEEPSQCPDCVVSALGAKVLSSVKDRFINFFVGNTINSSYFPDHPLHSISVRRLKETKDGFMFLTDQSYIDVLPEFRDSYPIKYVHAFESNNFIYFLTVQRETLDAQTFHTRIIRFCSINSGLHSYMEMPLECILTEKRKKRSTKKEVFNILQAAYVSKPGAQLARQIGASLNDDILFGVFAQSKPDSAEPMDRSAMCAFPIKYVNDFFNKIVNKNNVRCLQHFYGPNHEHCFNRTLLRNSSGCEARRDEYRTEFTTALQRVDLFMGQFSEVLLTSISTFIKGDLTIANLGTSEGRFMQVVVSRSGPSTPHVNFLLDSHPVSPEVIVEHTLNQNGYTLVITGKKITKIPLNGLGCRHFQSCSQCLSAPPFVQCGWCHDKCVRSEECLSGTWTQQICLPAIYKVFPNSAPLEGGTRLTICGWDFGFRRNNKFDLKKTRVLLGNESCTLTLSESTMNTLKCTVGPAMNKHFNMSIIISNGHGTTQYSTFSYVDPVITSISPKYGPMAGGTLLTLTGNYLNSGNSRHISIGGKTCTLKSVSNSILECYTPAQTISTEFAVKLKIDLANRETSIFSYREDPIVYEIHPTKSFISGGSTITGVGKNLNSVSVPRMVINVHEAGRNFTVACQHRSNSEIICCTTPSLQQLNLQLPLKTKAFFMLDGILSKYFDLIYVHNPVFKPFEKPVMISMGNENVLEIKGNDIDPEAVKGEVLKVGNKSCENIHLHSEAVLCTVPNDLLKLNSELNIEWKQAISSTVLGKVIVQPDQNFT
# These are yes or no findings as the source states them, for the method shown. Some entries that bind do so weakly or less than the wild type.
# What was measured:
# [1] = molecular target: human MET-hIgG Fc fusion protein (Sino Biological Inc.) (human) (UniProt P08581); experiment: capture ELISA: cys-diabody coated, MET-hFc applied, detected with anti-human Fc
# [2] = molecular target: human MET-hIgG Fc fusion protein (Sino Biological Inc.) (human) (UniProt P08581); experiment: capture ELISA: cys-diabody coated on the plate, human MET-hIgG Fc applied, detected with alkaline phosphatase anti-human IgG
binding [1],binding [2],Binder
binds,binds,"C2 cys-diabody (other, Expressed in E. coli and purified through the His tag; also called C2 diabody) QVQLQESGGGLVQPGGSLRLSCAASGFTFSSYAMSWVRQAPGKGLEWVSAISGSGGSTYYADSVKGRFTISRDNSKNTLYLQMNSLRAEDTAVYYCASQHVGEQSRYFDYWGQGTLVTVSSGGGGGSDIVMTQSPSSLSASIGDRVTITCRASHSISSYVNWYQKKPGKAPNLLIYAASYLPRGVPSRFSGSGLGTDFTLTISNLQPEDFATYYCQESYSTPYSFGQGTKVDIKRAAAEQKLISEEDLNGAAHHHHHHC"
binds,binds,"H5 cys-diabody (other, Expressed in E. coli and purified through the His tag; also called H5 diabody) QVQLQESGGGLVQPGGSLRLSCAASGFTFSNYAMSWVRQAPGKGLEWVSAISGSGGSTYYADSVKGRFTISRDNSKNTLYLQMNSLRAEDTAVYYCAKDRFRAAAYWGQGTLVTVSSGGGGGSQSVLTQPPSVSAAPGQKVTISCTGSSSNIGAGYDVHWYQQLPGTAPKLLIYGNSNRPSGVPDRFSGSKSGTSASLAISGLQSEDEADYYCAAWDDILNGEIFGGGTKVTVLGAAAEQKLISEEDLNGAAHHHHHHC"
